Results on one substance are retold here after patent publication US20040241845A1.

The chains behind the UniProt entries cited, without tags or fusion partners. Where a name states a change or a piece, a line headed by the entry shows the natural chain unless it says otherwise.
UniProt O95793: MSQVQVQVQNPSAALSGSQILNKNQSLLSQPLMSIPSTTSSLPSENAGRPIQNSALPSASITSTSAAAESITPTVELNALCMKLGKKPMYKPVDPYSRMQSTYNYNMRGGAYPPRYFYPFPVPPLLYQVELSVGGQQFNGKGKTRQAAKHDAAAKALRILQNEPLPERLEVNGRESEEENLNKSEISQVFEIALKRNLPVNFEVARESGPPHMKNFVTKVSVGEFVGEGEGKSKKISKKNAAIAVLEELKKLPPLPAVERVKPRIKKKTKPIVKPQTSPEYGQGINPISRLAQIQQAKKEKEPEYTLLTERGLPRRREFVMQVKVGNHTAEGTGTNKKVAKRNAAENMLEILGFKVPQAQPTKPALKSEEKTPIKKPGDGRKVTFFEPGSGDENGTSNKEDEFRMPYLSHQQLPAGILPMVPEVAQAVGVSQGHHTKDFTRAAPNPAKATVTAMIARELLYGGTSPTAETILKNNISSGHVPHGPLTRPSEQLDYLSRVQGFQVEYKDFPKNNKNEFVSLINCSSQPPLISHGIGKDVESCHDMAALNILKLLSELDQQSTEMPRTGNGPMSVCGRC

Assay [1] concerns the target pr55Gag/Rluc (full-length HxB2 Gag fused to Renilla luciferase) (HIV-1 HxB2; Renilla reniformis) (UniProt P04591). Briefly: co-immunoprecipitation with anti-CA, Western with anti-HA.
Assay [2] has the same target. Briefly: co-immunoprecipitation with anti-CA (legend of FIG. 16).

No constants are given. Whether binding was seen depends on the method and setting. In cells and extracts the contact can be indirect. Some binding calls cover weakened binding; strength is not graded here.

“Staufen-HA (wild-type human Staufen, short isoform, HA-tagged) (from UniProt O95793 82-577)”: the binding entry in assay [1] and in assay [2] was “binds” throughout.
